Laboratory results: paper PMC9897197 (Brain, 2022)

Assay: Brain uptake
Settings: ISCP, 3H-diazepam (0.3 µCi/µl), age-matched (15-week-old) C57Bl6 mice; mean ± SEM

CN1C(=O)CN=C(c2ccccc2)c2cc(Cl)ccc21 [diazepam]
brain uptake coefficient of diazepam (highly diffusible comparator): 45.6 ± 2.6 µL/g/s
